The target in series [1] is Integrin beta3 (CD61, GP3A), overexpressed on A549-ITGB3-OE cells (Homo sapiens) (UniProt P05106). As to the kind of experiment: flow cytometry. To be noted: PBS with 5 mM MgCl2, 4.5 g/L glucose, 100 ug/mL tRNA, 4 C, 30 min, pH not stated, pull-down on ice 30 min. A general note: A flow cytometer gives signals particle by particle.
Series [2] concerns the target Integrin beta3 in membrane protein extract of A549-ITGB3-OE cells (Homo sapiens) (UniProt P05106). As to the kind of experiment: pull-down. The note with it: biotin aptamer, membrane proteins, formaldehyde crosslink after binding, anti-ITGB3 blot; PBS with 5 mM MgCl2, 4.5 g/L glucose, 100 ug/mL tRNA; 4 C, 30 min; pH not stated; pull-down on ice 30 min; protein in a lysate after overexpression; label: FAM, Cy5 or biotin by assay; folded or branched DNA.

Chains of the proteins cited; added tags and fusions are not shown. Lines headed by an entry give the natural chain unless they say otherwise; changes in a name come on top. Residues count along the entry.
UniProt P05106, 27-788: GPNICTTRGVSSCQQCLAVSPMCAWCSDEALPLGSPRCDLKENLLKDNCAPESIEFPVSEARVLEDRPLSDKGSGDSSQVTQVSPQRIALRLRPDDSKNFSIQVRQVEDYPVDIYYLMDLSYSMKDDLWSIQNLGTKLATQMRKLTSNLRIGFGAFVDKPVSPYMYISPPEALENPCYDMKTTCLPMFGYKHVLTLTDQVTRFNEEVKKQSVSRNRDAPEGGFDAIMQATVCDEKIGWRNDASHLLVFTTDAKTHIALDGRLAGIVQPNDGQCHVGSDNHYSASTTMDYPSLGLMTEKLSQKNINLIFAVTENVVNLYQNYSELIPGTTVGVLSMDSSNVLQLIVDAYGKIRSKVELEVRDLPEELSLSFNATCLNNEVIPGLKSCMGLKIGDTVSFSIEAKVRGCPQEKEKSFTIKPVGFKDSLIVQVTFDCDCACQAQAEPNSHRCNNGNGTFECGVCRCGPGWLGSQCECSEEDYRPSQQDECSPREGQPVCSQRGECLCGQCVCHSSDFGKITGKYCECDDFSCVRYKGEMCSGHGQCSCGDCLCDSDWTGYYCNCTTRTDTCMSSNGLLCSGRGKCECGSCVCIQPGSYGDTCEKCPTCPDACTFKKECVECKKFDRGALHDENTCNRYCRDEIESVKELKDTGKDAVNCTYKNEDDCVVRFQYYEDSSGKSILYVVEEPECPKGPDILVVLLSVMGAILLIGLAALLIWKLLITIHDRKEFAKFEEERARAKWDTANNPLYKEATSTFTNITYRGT
UniProt P08514, 639-887: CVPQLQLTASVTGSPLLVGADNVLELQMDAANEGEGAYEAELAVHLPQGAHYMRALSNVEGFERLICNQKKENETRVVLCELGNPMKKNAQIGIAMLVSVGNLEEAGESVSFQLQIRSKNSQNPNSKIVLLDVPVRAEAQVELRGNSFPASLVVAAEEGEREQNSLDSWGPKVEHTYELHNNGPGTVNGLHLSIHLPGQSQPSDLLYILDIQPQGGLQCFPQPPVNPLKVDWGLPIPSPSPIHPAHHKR
UniProt P06756: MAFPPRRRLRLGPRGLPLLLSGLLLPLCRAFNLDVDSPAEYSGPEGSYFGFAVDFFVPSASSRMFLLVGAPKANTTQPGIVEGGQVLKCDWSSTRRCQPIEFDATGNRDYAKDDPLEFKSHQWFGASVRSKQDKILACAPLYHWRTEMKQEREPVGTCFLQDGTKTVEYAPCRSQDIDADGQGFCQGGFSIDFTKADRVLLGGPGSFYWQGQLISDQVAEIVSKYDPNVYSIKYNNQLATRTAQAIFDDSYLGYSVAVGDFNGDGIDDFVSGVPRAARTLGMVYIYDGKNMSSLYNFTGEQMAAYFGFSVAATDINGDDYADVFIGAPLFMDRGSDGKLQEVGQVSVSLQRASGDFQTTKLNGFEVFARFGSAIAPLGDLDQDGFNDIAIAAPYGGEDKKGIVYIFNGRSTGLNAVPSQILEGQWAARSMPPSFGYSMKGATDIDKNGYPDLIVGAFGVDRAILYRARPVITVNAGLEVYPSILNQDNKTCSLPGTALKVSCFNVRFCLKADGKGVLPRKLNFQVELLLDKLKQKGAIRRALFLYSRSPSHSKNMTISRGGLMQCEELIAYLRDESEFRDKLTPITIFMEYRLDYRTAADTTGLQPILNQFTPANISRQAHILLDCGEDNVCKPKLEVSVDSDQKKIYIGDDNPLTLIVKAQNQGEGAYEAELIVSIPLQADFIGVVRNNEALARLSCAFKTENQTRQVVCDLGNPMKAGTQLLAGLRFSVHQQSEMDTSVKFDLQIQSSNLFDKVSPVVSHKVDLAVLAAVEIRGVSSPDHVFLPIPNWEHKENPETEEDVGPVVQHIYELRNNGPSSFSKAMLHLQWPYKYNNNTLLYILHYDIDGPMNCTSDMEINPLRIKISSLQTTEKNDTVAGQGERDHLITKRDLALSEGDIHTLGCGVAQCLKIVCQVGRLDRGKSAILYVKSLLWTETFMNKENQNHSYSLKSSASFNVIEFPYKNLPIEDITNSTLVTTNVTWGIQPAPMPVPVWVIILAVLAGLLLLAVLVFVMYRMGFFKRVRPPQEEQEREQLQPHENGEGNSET

Series [3] concerns the target Integrin alphaIIb partial (CSB-EP011865HU) (Homo sapiens) (UniProt P08514). As to the kind of experiment: flow cytometry. To be noted: alphaIIb subunit (apparently on beads); PBS with 5 mM MgCl2, 4.5 g/L glucose, 100 ug/mL tRNA; 4 C, 30 min; pH not stated; pull-down on ice 30 min; commercial protein; residues 639-887; label: FAM, Cy5 or biotin by assay; folded or branched DNA.

Series [4] deals with Integrin alphaV (ab114240) (Homo sapiens) (UniProt P06756). Briefly: flow cytometry. To be noted: alphaV subunit (apparently on beads); PBS with 5 mM MgCl2, 4.5 g/L glucose, 100 ug/mL tRNA; 4 C, 30 min; pH not stated; pull-down on ice 30 min; commercial protein; label: FAM, Cy5 or biotin by assay; folded or branched DNA.
The target in series [5] is Integrin beta3, endogenous on HeLa cells (UniProt P05106). As to the kind of experiment: flow cytometry. The note with it: live HeLa cells, 500 nM Cy5 aptamer; PBS with 5 mM MgCl2, 4.5 g/L glucose, 100 ug/mL tRNA; 4 C, 30 min; pH not stated; pull-down on ice 30 min; protein on the cell surface; label: FAM, Cy5 or biotin by assay; folded or branched DNA.
Series [6] has as its target Integrin beta3, endogenous on U87 cells (UniProt P05106). As to the kind of experiment: flow cytometry. The note with it: live U87 cells, 500 nM Cy5 aptamer; PBS with 5 mM MgCl2, 4.5 g/L glucose, 100 ug/mL tRNA; 4 C, 30 min; pH not stated; pull-down on ice 30 min; protein on the cell surface; label: FAM, Cy5 or biotin by assay; folded or branched DNA.
[7] abbreviates: live A549-ITGB3-OE cells, protein on the cell …, label: fluorophore (FAM or Cy5), single-stranded DNA.

11 sequences from paper PMC10448441 can be followed below.

For part of these data: Negatives hold for the conditions tested. For part of these data: The exact form of at least one protein or probe is not confirmed. For part of these data: Where cells or extracts were used, other partners may take part. For part of these data: Weaker means in comparison with the reference protein, sequence or condition of that experiment. For part of these data: At least one verdict rests on a figure or table, not on a statement of the authors.

Consider “TTCAGCACTCCACGCATAGCACATGTAGTGTGTGCGCCACAATTTGGGGCAACCAACTGACCTATGCGTGCTACCGTGAA [S2]”, for which the binding result in series [1] (setting [7]) was “binds”. Consider “TTCAGCACTCCACGCATAGCTGTGTTCACAAGATAAAGGGCTCCTAGGCTATGTGCGTCTCCTATGCGTGCTACCGTGAA [S6]”, for which the binding result in series [1] (setting [7]) is given as “binds”. In the case of “TTCAGCACTCCACGCATAGCTTCTGACTGAATCGCTCGGTGTCGAAACAGGTGAGCCTTACCTATGCGTGCTACCGTGAA [S5]”, the binding result in series [1] (setting [7]) is listed as “binds”. Still for that read-out and setting: the result for “TTCAGCACTCCACGCATAGCGAAACGGTGCCATAAGATCAAGCCACATGACATGACCTTCCCTATGCGTGCTACCGTGAA [S7]” reads “binds”; that for “TTCAGCACTCCACGCATAGCTGACTGCTCCTTAGGTGTGACCTAAAGTGTTCTGTTTTCGCCTATGCGTGCTACCGTGAA [S9]”, “binds”; that for “TTCAGCACTCCACGCATAGCATACCCTGCCGCAAGCAGCTAATATTGATTAGTGACCGCCCCTATGCGTGCTACCGTGAA [S3]”, “binds”. For “TTCACGCATAGCTCCACGATGTAGGATCCACATGAGCGCTCCTGTTACCCTGCCTATGCGTGAA [S10yh1]”, the binding result in series [1] (live A549-ITGB3-OE cells, equivalent to S10yh2, protein on the cell surface, label: fluorophore (FAM or Cy5), folded or branched DNA) is given as “binds”.

In the case of “TTCAGCACTCCACGCATAGCGAGACACGCAGTGTAGATGGTCAGGGCGTAGTTGAGCTTGCCTATGCGTGCTACCGTGAA [S8]”, the binding result in series [1] (setting [7]) is “binds”. Turning to “TCCACGATGTAGGATCCACATGAGCGCTCCTGTTACCCTG [S10yh2]”, the binding result in series [2] was “binds”; in series [3] it was “no binding”; in series [4] it was “no binding”; in series [1] (5 mM Ca2+ added to Mg2+ buffer, binding unaffected, protein on the cell surface, label: FAM, Cy5 or biotin by assay, folded or branched DNA), “binds”; in series [1] (DMEM + 10% FBS, no significant change, protein on the cell surface, label: FAM, Cy5 or biotin by assay, folded or branched DNA), “binds”; in series [1] (EDTA added (Mg2+ chelated), protein on the cell surface, label: FAM, Cy5 or biotin by assay, folded or branched DNA), “binds more weakly”. The binding result in series [5] and in series [6] was “binds” in each case.

As for “TTCAGCACTCCACGCATAGCAGCCGAAGCGACAAGCTTGTGTAGAAGTTGGAAGCGTCCGCCTATGCGTGCTACCGTGAA [S4]”, in series [1] (setting [7]), the binding result is recorded as “binds”. Regarding “TTCAGCACTCCACGCATAGCTGGCTATTCCGAGATTCCTTGCGCGAACTTCGTTGCTACACCTATGCGTGCTACCGTGAA [S1]”, the binding result in series [1] (setting [7]) is given as “binds”.
